Among the data in publication PMC3374797, “Intrinsically Unstructured Domain 3 of Hepatitis C Virus NS5A Forms a “Fuzzy Complex” with VAPB-MSP Domain Which Carries ALS-Causing Mutations” (PLoS ONE, 2012) are binding values, retold here.

Sequences of proteins named here, by UniProt entry; tags and fusion partners are left off. A change or cut given only in a name is not applied to a line headed by its entry.
UniProt P54764: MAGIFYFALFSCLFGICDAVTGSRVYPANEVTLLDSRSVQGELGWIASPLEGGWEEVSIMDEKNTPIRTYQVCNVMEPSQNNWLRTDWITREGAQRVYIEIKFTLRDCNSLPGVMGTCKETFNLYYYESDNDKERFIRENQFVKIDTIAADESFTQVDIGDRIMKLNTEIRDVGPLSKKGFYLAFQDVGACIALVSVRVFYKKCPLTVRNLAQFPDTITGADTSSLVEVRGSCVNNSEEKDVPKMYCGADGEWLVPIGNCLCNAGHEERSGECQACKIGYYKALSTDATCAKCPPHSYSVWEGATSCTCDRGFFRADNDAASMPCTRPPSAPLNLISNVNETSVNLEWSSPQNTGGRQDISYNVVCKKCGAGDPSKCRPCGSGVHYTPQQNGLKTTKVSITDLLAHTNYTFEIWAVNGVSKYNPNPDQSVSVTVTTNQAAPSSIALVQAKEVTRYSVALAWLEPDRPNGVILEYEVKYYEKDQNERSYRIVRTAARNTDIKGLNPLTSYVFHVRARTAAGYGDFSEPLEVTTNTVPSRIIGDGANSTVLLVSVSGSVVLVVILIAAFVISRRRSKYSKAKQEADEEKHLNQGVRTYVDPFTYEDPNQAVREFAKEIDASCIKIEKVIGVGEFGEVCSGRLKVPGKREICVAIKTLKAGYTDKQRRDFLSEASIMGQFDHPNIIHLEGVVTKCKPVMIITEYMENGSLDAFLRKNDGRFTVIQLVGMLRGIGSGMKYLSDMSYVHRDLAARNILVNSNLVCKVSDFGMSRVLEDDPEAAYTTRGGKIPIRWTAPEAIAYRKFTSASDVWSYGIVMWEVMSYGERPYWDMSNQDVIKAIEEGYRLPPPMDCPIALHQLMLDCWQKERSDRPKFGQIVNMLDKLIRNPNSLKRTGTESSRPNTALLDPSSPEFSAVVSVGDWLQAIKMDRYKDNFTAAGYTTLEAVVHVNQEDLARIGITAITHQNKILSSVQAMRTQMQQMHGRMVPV

Experiment [1] deals with VAPB-MSP(1–125) (Homo sapiens, UniProt O95292). Kind of experiment: NMR titration; both purified.
Experiment [2] addresses T1, VAPB-CC(151–195) (human) (UniProt O95292).
T1 sequence: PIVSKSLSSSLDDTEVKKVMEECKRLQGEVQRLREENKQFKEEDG
Kind of experiment: NMR titration; both purified.

Results are given in words; binding and its absence hold for the method and conditions named. For some assays here: Binding can be weak; no strength is given.

In the case of “EphA4 ligand-binding domain (LBD) (from UniProt P54764) (domain or fragment)”, the binding entry in experiment [1] is reported as “binds”. NS5A(33–447) (domain or fragment): the binding entry in experiment [2] is “no binding (tested: molar ratio 1:2.5 (VAPB-CC/NS5A))”. In the case of NS5A(251–380) (domain or fragment), the binding entry in experiment [2] is recorded as “no binding”. On the same count and under the same terms, the entry for NS5A(300–447) (domain or fragment) is “no binding (tested: molar ratio 1:4 (VAPB/NS5A))”.

As for NS5A(313–366) (domain or fragment), the binding result in experiment [2] was “no binding”.
